According to PubChem BioAssay AID192 (DTP/NCI, 2004):
The list is a part of this screen's results and no random one: it gathers tests that were run many times, whatever their T/C, doses with no T/C, and many T/C values between a quarter and a half above the control. Other doses and runs of a compound stand elsewhere. T/C gives the treated animals as a percentage of the vehicle group. Some entries give survivors of the animals treated and no T/C: the source files T/C as zero there, which appears to mark a toxic dose or a test without result, not a measured value. Some survivor counts are full or nearly so, which does not show that the dose was tolerated: the source hardly ever lists a survival T/C far under the control, and the zero likely stands for such cases as well. Survivors were counted at the toxicity check, usually on the fifth day, unless a day is given; later deaths do not show. Schedules are NCI's codes, taken here to give the interval after Q, in days (D) or hours (H), and the number of doses after X. Some entries were tested several times; the results are listed from low to high. Where survival is the endpoint, the PubChem record calls one and a half times the control and up active, and a quarter to a half above the control has no call in these data; cut-offs in other NCI protocols can differ. Some T/C values carry the count of animals alive at the toxicity check (mostly the fifth day); without a count, all were alive then.

Test system: BDF1 mice, B16 melanoma ip, median survival T/C
Experiment: NCI In Vivo Anticancer Drug Screen. Data for tumor model B16 Melanoma (intraperitoneal) in B6D2F1 (BDF1) mice
Settings: T/C endpoint: median survival time, higher T/C = longer survival
In short: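 Antitumor activity is assessed in mice bearing a transplanted tumor, with survival or tumor size compared against vehicle-dosed controls and expressed as T/C.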

[1] = dose: 2.5 mg/kg/injection, schedule: Q01DX009 (ip), vehicle: Klucel (hydroxypropylcellulose) (HPC)
[2] = dose: 5.0 mg/kg/injection, schedule: Q01DX009 (ip), vehicle: Klucel (hydroxypropylcellulose) (HPC)
[3] = dose: 20.0 mg/kg/injection, schedule: Q01DX009 (ip), vehicle: Klucel (hydroxypropylcellulose) (HPC)
[4] = dose: 12.5 mg/kg/injection, schedule: Q01DX009 (ip), vehicle: saline with Tween-80
[5] = dose: 25.0 mg/kg/injection, schedule: Q01DX009 (ip), vehicle: saline with Tween-80
[6] = dose: 50.0 mg/kg/injection, schedule: Q01DX009 (ip), vehicle: saline with Tween-80
[7] = dose: 200.0 mg/kg/injection, schedule: Q01DX009 (ip), vehicle: saline with Tween-80
[8] = dose: 400.0 mg/kg/injection, schedule: Q01DX009 (ip), vehicle: saline with Tween-80
[9] = dose: 100.0 mg/kg/injection, schedule: Q01DX009 (ip), vehicle: Klucel (hydroxypropylcellulose) (HPC)
[10] = dose: 200.0 mg/kg/injection, schedule: Q04DX003 (ip), vehicle: Klucel (hydroxypropylcellulose) (HPC)
[11] = dose: 400.0 mg/kg/injection, schedule: Q04DX003 (ip), vehicle: Klucel (hydroxypropylcellulose) (HPC)
[12] = dose: 300.0 mg/kg/injection, schedule: Q01DX009 (ip), vehicle: Klucel (hydroxypropylcellulose) (HPC)
[13] = dose: 12.5 mg/kg/injection, schedule: Q01DX009 (ip), vehicle: Klucel (hydroxypropylcellulose) (HPC)
[14] = dose: 25.0 mg/kg/injection, schedule: Q01DX009 (ip), vehicle: Klucel (hydroxypropylcellulose) (HPC)
[15] = dose: 50.0 mg/kg/injection, schedule: Q01DX009 (ip), vehicle: Klucel (hydroxypropylcellulose) (HPC)
[16] = dose: 200.0 mg/kg/injection, schedule: Q01DX009 (ip), vehicle: Klucel (hydroxypropylcellulose) (HPC)
[17] = dose: 200.0 mg/kg/injection, schedule: Q01DX009 (ip), vehicle: saline
[18] = dose: 400.0 mg/kg/injection, schedule: Q01DX009 (ip), vehicle: Klucel (hydroxypropylcellulose) (HPC)
[19] = dose: 100.0 mg/kg/injection, schedule: Q01DX009 (ip), vehicle: saline

In the case of `CCCCCn1c(C)cc(/C=C\c2ccc3cc(C)ccc3[n+]2C)c1C`, the survivor count [1] is reported as 2 of 10, the survivor count [2] is reported as 0 of 10 and the survivor count (dose: 10.0 mg/kg/injection, schedule: Q01DX009 (ip), vehicle: Klucel (hydroxypropylcellulose) (HPC)) is reported as 0 of 10. For the same compound, the survivor count [3] was 0 of 10.
For `COc1ccc2nc3ccccc3c(NCCNCCO)c2c1`, the T/C (dose: 5.0 mg/kg/injection, schedule: Q01DX009 (ip), vehicle: saline) was 125 % of control and the survivor count (dose: 20.0 mg/kg/injection, schedule: Q01DX009 (ip), vehicle: saline) was 10 of 10.
For `O=C(N/N=C\c1cc(Br)cc(Br)c1O)N/N=C/c1cc(Br)cc(Br)c1O`, the T/C [4] was 132 % of control, the T/C [5] was 91, 107, 134, 168 % of control and the T/C [6] was 130, 136, 140, 159 % of control. For the same compound, the T/C (dose: 100.0 mg/kg/injection, schedule: Q01DX009 (ip), vehicle: saline with Tween-80) was 118, 123, 160, 164 % of control, the T/C [7] was 128 and 164 % of control and the survivor count [7] was 8 of 10 and 10 of 10. The T/C [8] was 157 % of control, the survivor count [8] was 6 of 10, 8 of 10, 9 of 10 and the T/C (dose: 400.0 mg/kg/injection, schedule: Q01DX009 (ip), vehicle: sodium bicarbonate) was 126 % of control.
For `c1ccc2c(CNC3CCCCC3)c[nH]c2c1`, the survivor count [9] was 7 of 10, the survivor count [10] was 2 of 10 and the survivor count [11] was 0 of 10.
In the case of `CC(C)C(NC=O)C(=O)O` (stereo unspecified), the survivor count [8] is reported as 8 of 10.
In the case of `COc1cc(O)c2c(c1)C(=O)c1cc3c(c(O)c1C2=O)C(O)C(OC)C(C)(O)C3=O` (stereo unspecified), the survivor count (dose: 50.0 mg/kg/injection, schedule: Q01DX009 (ip), vehicle: other) is reported as 6 of 6, the survivor count [9] is reported as 10 of 10 and the survivor count (dose: 100.0 mg/kg/injection, schedule: Q01DX009 (ip), vehicle: other) is reported as 6 of 6. For the same compound, the survivor count (dose: 200.0 mg/kg/injection, schedule: Q01DX009 (ip), vehicle: other) was 6 of 6 and the survivor count (dose: 400.0 mg/kg/injection, schedule: Q01DX009 (ip), vehicle: other) was 6 of 6.
For `COc1cc2ccc(CC(=O)NCc3ccccc3)cc2cc1OC`, the T/C [6] was 125 % of control, the T/C (dose: 90.0 mg/kg/injection, schedule: Q01DX009 (ip), vehicle: Klucel (hydroxypropylcellulose) (HPC)) was 125 % of control and the T/C [7] was 127 % of control. For the same compound, the T/C [12] was 127 % of control.
In the case of `O=C1NC(c2ccccc2)(c2ccccc2)C(=O)N1CCN(CCCl)CCCl`, the T/C [13] is reported as 139 % of control, the survivor count [13] is reported as 10 of 10 and the T/C [14] is reported as 135 % of control [9 of 10 alive]. For the same compound, the survivor count [15] was 3 of 6, the survivor count [9] was 0 of 10 and 1 of 6 and the survivor count [16] was 3 of 6.
In the case of `OCCN1CCCN(CCCN2c3ccccc3Sc3ccc(C(F)(F)F)cc32)CC1`, the T/C (dose: 1.17 mg/kg/injection, schedule: Q04DX003 (ip), vehicle: saline) is reported as 127 % of control, the survivor count (dose: 9.37 mg/kg/injection, schedule: Q01DX009 (ip), vehicle: saline) is reported as 10 of 10 and the survivor count (dose: 18.75 mg/kg/injection, schedule: Q04DX003 (ip), vehicle: saline) is reported as 3 of 10.
With `CN(C)C1=NC(=O)C(c2ccccc2)O1` (stereo unspecified) the survivor count [17] was 0 of 10.
For `CN(C)S(=O)(=O)c1ccc2c(c1)N(CCCN1CCN(S(C)(=O)=O)CC1)c1ccccc1S2`, the survivor count (dose: 6.25 mg/kg/injection, schedule: Q01DX009 (ip), vehicle: Klucel (hydroxypropylcellulose) (HPC)) was 10 of 10, the survivor count [14] was 10 of 10 and the survivor count [15] was 10 of 10. The survivor count [9] was 10 of 10, the survivor count [16] was 10 of 10 and the survivor count [18] was 9 of 10.
`CCC(=O)/C=C/C1C(C)=CCCC1(C)C` (stereo unspecified) was tested, and the survivor count [7] was 8 of 10.
For `CC(C)=C(C=O)CCC(C)C`, the survivor count (dose: 200.0 mg/kg/injection, schedule: Q04DX003 (ip), vehicle: saline with Tween-80) was 10 of 10 and the survivor count (dose: 400.0 mg/kg/injection, schedule: Q04DX003 (ip), vehicle: saline with Tween-80) was 9 of 10.
`O=P1(NCCCl)OCCCN1CCCl` (stereo unspecified) was tested, and the T/C (dose: 50.0 mg/kg/injection, schedule: Q01DX009 (ip), vehicle: water) was 128 and 133 % of control, the T/C (dose: 50.0 mg/kg/injection, schedule: Q02DX009 (ip), vehicle: saline) was 126 and 133 % of control and the T/C [19] was 137 and 147 % of control. The survivor count [19] was 10 of 10, the survivor count (dose: 100.0 mg/kg/injection, schedule: Q01DX009 (ip), vehicle: water) was 10 of 10 and the T/C (dose: 100.0 mg/kg/injection, schedule: Q02DX009 (ip), vehicle: saline) was 126 and 133 % of control. For the same compound, the T/C (dose: 100.0 mg/kg/injection, schedule: Q02DX009 (ip), vehicle: water) was 143 % of control, the survivor count [17] was 9 of 10, 10 of 10, 6 of 6 and the survivor count (dose: 200.0 mg/kg/injection, schedule: Q01DX009 (ip), vehicle: water) was 10 of 10. For the same compound, the survivor count (dose: 400.0 mg/kg/injection, schedule: Q01DX009 (ip), vehicle: saline) was 3 of 10 and 4 of 10, the survivor count (dose: 400.0 mg/kg/injection, schedule: Q01DX009 (ip), vehicle: water) was 7 of 10 and 10 of 10 and the survivor count (dose: 400.0 mg/kg/injection, schedule: Q02DX009 (ip), vehicle: saline) was 8 of 10 and 10 of 10. The survivor count (dose: 400.0 mg/kg/injection, schedule: Q02DX009 (ip), vehicle: water) was 10 of 10.
With `NC(=O)Oc1ccccc1` the survivor count [18] was 8 of 10.
In the case of `Cc1cc(C)[c]([Hg][Cl])c(C)c1`, the survivor count [4] is reported as 8 of 10 and the survivor count [5] is reported as 0 of 10.
For `COc1ccc(Cl)cc1NC(=O)c1ccccc1C(=O)O`, the survivor count [18] was 5 of 10.
With `CCCCCCCC(=O)O[C@H]1[C@H]2[C@@H](CC1(C)C)C(=O)[C@]13O[C@H]1C(=O)[C@]1(CO1)[C@]23C` the survivor count [1] was 10 of 10, the survivor count (dose: 2.5 mg/kg/injection, schedule: Q01DX009 (ip), vehicle: saline with Tween-80) was 10 of 10 and the survivor count [2] was 10 of 10. The survivor count (dose: 5.0 mg/kg/injection, schedule: Q01DX009 (ip), vehicle: saline with Tween-80) was 6 of 6, the survivor count (dose: 10.0 mg/kg/injection, schedule: Q01DX009 (ip), vehicle: saline with Tween-80) was 5 of 6 and the survivor count [3] was 10 of 10.
For `COc1cc2cc3cc4cc(OC)c(OC)cc4c(C)[n+]3cc2cc1OC` (tested in a mixture with another compound), the survivor count (dose: 40.0 mg/kg/injection, schedule: Q01DX009 (ip), vehicle: Klucel (hydroxypropylcellulose) (HPC)) was 10 of 10, the survivor count (dose: 80.0 mg/kg/injection, schedule: Q01DX009 (ip), vehicle: Klucel (hydroxypropylcellulose) (HPC)) was 9 of 10 and the survivor count (dose: 160.0 mg/kg/injection, schedule: Q01DX009 (ip), vehicle: Klucel (hydroxypropylcellulose) (HPC)) was 1 of 10.
`O=C(Oc1ccc(Cl)cc1Cl)c1ccc([N+](=O)[O-])cc1` was tested, and the survivor count [15] was 10 of 10, the survivor count [9] was 10 of 10 and the survivor count [16] was 10 of 10. For the same compound, the survivor count [18] was 9 of 10.
`COc1ccc(/C=C\C(=O)/C=C/c2ccc(OC)cc2)cc1` was tested, and the survivor count [10] was 10 of 10 and the survivor count [11] was 9 of 10.
For `CCCCN(CCCC)CCC(=O)c1ccc(OC)c2ccccc12`, the survivor count [6] was 10 of 10.
`O=c1ccc2ccccc2o1` was tested, and the survivor count [12] was 1 of 10.
